These are yes or no findings as the source states them, for the method shown. Some binding calls cover weakened binding; strength is not graded here.
T1: human NgR1 alanine mutant 114, 117 (human) (UniProt Q9BZR6)
T1 sequence: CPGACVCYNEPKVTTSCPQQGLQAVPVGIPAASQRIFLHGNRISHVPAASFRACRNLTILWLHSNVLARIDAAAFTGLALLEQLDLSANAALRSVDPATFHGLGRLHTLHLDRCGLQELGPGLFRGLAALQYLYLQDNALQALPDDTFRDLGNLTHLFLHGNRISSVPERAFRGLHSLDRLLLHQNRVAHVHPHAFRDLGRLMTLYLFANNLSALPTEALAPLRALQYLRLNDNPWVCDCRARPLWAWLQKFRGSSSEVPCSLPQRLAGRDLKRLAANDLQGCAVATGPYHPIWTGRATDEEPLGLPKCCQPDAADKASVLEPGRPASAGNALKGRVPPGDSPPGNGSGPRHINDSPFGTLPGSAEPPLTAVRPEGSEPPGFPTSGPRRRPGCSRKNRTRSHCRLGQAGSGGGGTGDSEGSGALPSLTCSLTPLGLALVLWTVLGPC

T2: human NgR1 alanine mutant 202, 205, 250 (human) (UniProt Q9BZR6)
T2 sequence: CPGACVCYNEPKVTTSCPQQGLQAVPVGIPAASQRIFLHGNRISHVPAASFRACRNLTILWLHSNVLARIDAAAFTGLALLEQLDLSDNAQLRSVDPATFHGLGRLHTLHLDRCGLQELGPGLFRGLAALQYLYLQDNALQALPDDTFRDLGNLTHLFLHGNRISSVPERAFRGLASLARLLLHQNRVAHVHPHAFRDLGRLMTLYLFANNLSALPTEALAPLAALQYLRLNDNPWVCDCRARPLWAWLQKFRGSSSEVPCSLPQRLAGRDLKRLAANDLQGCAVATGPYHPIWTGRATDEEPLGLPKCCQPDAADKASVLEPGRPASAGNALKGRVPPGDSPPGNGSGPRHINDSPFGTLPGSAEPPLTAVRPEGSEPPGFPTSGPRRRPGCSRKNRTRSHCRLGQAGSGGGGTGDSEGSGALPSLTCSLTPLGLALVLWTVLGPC

T3: human NgR1 alanine mutant 216, 218, 220 (human) (UniProt Q9BZR6)
T3 sequence: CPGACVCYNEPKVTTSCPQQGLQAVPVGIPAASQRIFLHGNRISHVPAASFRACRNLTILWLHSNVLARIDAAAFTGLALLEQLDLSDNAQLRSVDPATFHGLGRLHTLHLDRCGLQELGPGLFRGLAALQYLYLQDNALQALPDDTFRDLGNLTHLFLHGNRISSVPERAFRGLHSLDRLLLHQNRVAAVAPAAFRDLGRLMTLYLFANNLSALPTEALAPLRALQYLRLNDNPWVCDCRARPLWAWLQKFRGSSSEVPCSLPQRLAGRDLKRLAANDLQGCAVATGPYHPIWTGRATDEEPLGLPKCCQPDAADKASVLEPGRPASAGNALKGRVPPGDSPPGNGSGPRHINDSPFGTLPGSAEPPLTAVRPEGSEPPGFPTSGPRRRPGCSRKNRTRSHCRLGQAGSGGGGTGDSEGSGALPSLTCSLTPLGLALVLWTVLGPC

T4: human NgR1 alanine mutant 237, 256, 259 (human) (UniProt Q9BZR6)
T4 sequence: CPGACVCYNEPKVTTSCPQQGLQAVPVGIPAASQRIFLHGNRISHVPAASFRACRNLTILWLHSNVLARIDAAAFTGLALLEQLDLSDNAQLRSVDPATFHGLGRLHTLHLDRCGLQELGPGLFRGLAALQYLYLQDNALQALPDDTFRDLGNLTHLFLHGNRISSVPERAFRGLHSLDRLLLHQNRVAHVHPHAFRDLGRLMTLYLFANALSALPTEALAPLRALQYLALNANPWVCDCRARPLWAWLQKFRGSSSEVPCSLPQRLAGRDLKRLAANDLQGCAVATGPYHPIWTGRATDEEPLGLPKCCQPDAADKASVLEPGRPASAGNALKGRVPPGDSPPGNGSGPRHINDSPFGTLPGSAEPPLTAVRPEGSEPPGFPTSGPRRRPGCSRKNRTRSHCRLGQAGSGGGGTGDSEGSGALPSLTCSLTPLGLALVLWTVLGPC

T5: human NgR1 alanine mutant 36, 38, 61 (human) (UniProt Q9BZR6)
T5 sequence: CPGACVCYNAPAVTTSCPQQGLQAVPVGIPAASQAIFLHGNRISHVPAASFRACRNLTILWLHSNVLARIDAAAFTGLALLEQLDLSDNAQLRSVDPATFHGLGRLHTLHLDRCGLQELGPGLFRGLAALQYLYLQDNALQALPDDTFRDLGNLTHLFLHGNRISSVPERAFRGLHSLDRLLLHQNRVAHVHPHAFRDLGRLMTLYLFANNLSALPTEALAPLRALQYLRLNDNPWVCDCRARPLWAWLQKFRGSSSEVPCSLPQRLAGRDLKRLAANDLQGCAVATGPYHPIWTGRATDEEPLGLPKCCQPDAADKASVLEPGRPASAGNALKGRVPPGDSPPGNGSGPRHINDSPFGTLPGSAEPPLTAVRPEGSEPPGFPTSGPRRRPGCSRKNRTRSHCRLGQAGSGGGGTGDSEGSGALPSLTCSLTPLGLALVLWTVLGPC

T6: human NgR1 alanine mutant 63, 65, 87, 89 (human) (UniProt Q9BZR6)
T6 sequence: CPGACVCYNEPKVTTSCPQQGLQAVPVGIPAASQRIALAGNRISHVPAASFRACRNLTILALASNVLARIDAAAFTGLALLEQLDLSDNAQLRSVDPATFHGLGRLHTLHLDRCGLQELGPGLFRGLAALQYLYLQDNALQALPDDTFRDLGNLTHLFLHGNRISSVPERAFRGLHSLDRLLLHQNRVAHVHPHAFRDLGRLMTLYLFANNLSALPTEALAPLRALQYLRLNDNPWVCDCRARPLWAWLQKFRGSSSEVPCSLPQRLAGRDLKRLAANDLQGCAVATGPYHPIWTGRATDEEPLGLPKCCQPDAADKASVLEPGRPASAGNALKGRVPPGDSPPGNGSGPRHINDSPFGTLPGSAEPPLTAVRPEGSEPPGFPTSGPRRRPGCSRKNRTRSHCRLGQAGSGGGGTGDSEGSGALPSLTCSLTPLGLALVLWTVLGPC


Columns and labels:
Assay in all cases: AP-ligand binding, COS-7
[1] = biological target: T1, human NgR1 alanine mutant 114, 117 (human)
[2] = biological target: T2, human NgR1 alanine mutant 202, 205, 250 (human)
[3] = biological target: T3, human NgR1 alanine mutant 216, 218, 220 (human)
[4] = biological target: T4, human NgR1 alanine mutant 237, 256, 259 (human)
[5] = biological target: T5, human NgR1 alanine mutant 36, 38, 61 (human)
[6] = biological target: T6, human NgR1 alanine mutant 63, 65, 87, 89 (human)

binding [1]	binding [2]	binding [3]	binding [4]	binding [5]	binding [6]	Binder
binds	binds	binds	binds	binds	binds	AP-Nogo-66 (ligand, UniProt Q9NQC3 1055-1120, looked up, domain: Nogo-66; construct described elsewhere (Fournier 2001); also called AP-Ng66; Ng66; not shown: alkaline phosphatase (AP); construct described elsewhere) RIYKGVIQAIQKSDEGHPFRAYLESEVAISEELVQKYSNSALGHVNCTIKELRRLFLVDDLVDSLK
binds	binds	binds	binds	binds	binds	AP-fused Amino-Nogo fragment B4C (a.a. 950-1018) (ligand, also called AmNg B4C; AP-B4C; not shown: alkaline phosphatase (AP), vector pcAP6) LLPPDVSALATQAEIESIVKPKVLVKEAEKKLPSDTEKEDRSPSAIFSAELSKTSVVDLLYWRDIKKTG

From US20090111753A1, “Nogo-A Polypeptide Fragments, Variant Nogo Receptor-1 Polypeptides, and Uses Thereof” (Yale University, priority 2004, published 2009)
